This assay addresses DEAD-Box Helicase 17 (DDX17) (UniProt Q92841). Put plainly: co-IP; 293T cells lysed in IP-lysis buffer (P0013; Beyotime) with protease inhibitor cocktail; standard protocol; bait and antibodies not told in the main text.

The chains behind the UniProt entries cited, without tags or fusion partners.
UniProt Q92841: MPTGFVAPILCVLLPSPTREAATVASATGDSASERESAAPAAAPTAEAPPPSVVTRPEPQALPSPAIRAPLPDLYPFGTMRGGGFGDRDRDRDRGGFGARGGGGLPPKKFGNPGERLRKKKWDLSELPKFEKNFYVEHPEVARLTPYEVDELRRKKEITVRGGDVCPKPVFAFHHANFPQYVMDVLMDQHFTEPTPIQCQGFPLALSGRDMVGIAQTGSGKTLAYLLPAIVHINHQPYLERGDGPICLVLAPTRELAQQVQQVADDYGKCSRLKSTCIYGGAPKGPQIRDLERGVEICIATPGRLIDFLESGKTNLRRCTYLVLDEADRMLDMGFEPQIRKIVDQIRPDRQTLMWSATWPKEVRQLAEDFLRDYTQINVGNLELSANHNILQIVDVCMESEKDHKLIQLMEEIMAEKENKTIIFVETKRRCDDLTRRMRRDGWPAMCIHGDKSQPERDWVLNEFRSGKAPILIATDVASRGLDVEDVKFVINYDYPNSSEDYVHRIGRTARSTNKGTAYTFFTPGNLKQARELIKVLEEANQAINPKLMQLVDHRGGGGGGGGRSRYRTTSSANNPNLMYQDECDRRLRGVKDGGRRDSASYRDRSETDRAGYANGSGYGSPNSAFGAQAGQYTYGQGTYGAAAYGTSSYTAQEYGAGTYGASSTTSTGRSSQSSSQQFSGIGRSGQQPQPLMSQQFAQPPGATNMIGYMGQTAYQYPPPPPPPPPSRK
UniProt P17844: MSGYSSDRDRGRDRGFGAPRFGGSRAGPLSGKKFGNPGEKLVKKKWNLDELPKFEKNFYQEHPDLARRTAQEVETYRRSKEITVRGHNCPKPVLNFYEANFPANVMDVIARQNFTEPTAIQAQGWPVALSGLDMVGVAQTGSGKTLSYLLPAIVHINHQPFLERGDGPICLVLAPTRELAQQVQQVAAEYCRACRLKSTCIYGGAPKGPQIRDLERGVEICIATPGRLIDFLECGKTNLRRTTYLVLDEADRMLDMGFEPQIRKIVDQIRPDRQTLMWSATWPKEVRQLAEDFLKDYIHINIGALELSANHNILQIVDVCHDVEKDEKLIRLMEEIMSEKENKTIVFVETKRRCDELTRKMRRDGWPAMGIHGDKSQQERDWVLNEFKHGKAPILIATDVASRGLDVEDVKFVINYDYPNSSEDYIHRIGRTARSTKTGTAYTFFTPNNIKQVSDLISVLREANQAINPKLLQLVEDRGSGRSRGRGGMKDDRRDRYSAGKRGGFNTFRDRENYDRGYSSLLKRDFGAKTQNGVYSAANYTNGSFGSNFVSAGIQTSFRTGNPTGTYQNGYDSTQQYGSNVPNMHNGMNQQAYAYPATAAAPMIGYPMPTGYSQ

These are yes or no findings as the source states them, for the method shown. Binding seen in cells or lysates may run through a third protein. Some results given as binding are weak or reduced against the parent protein; the word gives no strength.

With “DEAD-Box Helicase 5 (DDX5) (from UniProt P17844 1-614)”, the binding result is given as “binds”.

B1: CCCTC binding factor (CTCF) (protein, UniProt P49711 1-727)
chain: MEGDAVEAIVEESETFIKGKERKTYQRRREGGQEEDACHLPQNQTDGGEVVQDVNSSVQMVMMEQLDPTLLQMKTEVMEGTVAPEAEAAVDDTQIITLQVVNMEEQPINIGELQLVQVPVPVTVPVATTSVEELQGAYENEVSKEGLAESEPMICHTLPLPEGFQVVKVGANGEVETLEQGELPPQEDPSWQKDPDYQPPAKKTKKTKKSKLRYTEEGKDVDVSVYDFEEEQQEGLLSEVNAEKVVGNMKPPKPTKIKKKGVKKTFQCELCSYTCPRRSNLDRHMKSHTDERPHKCHLCGRAFRTVTLLRNHLNTHTGTRPHKCPDCDMAFVTSGELVRHRRYKHTHEKPFKCSMCDYASVEVSKLKRHIRSHTGERPFQCSLCSYASRDTYKLKRHMRTHSGEKPYECYICHARFTQSGTMKMHILQKHTENVAKFHCPHCDTVIARKSDLGVHLRKQHSYIEQGKKCRYCDAVFHERYALIQHQKSHKNEKRFKCDQCDYACRQERHMIMHKRTHTGEKPYACSHCDKTFRQKQLLDMHFKRYHDPNFVPAAFVCSKCGKTFTRRNTMARHADNCAGPDGVEGENGGETKKSKRGRKRKMRSKKEDSSDSENAEPDLDDNEDEEEPAVEIEPEPEPQPVTPAPPPAKKRRGRPPGRTNQPKQNQPTAIIQVEDQNTGAIENIIVEVKKEPDAEPAEGEEEEAQPAATDAPNGDLTPEMILSMMDR
Consider B1, for which the binding result is given as “binds”.

The record behind these values is publication PMC10835191.
